At least one result comes from cells or an extract, where the contact may be indirect. For some of these results: A negative result means that nothing was seen under these conditions. For some of these results: At least one verdict rests on a figure or table, not on a statement of the authors. For some of these results: Where a protein sequence is shown, tags need not be part of it. For some of these results: For at least one entry, the source does not settle the construct or the ends of the probe.
Legend:
Assay in all cases: EMSA
nucleolin (endogenous) = nucleolin (endogenous) (UniProt P13383); details: RNA-EMSA, 1x buffer (from 10x): 50 mM KCl, 5% glycerol, 0.1% NP-40, 1 mM MgCl2, 1 mM DTT, 10 mM Tris-HCl pH 8.0, 0.5 mg/mL heparin, 0.5 mg/mL yeast tRNA, protein in an extract, label: biotin
nucleolin (pcDNA3.1-Nuc) = nucleolin (pcDNA3.1-Nuc) (UniProt P13383); details: RNA-EMSA, 1x buffer (from 10x): 50 mM KCl, 5% glycerol, 0.1% NP-40, 1 mM MgCl2, 1 mM DTT, 10 mM Tris-HCl pH 8.0, 0.5 mg/mL heparin, 0.5 mg/mL yeast tRNA, protein in a lysate after overexpression, residues 1-713, label: biotin
[1] = molecular target: T1, nucleolin Nuc1-309 del310-713 (UniProt P13383); details: band not significantly enhanced over endogenous background; RNA-EMSA, 1x buffer (from 10x): 50 mM KCl, 5% glycerol, 0.1% NP-40, 1 mM MgCl2, 1 mM DTT, 10 mM Tris-HCl pH 8.0, 0.5 mg/mL heparin, 0.5 mg/mL yeast tRNA; protein in a lysate after overexpression; residues 1-309; label: biotin
T1 sequence (looked up): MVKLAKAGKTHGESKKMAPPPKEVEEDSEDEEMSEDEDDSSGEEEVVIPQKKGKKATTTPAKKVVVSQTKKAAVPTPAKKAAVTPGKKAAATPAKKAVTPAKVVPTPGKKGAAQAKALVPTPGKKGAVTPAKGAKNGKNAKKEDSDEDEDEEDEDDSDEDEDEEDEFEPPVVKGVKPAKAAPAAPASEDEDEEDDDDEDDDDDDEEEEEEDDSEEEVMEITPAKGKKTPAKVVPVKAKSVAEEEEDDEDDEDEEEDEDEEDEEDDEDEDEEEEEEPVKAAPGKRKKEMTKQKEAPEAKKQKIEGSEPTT

[2] = Ang II-treated cells, control plasmid, nuclear extract, stronger than untreated
[3] = normal VSMC cytoplasmic extract, anti-nucleolin supershift, 100-fold unlabelled probe abolishes band
[4] = Ang II-treated cells, nuclear extract, stronger than untreated and than control plasmid
[5] = band significantly enhanced over normal extract

“GGGGCCGGGGGCGGCGGCGCCCGGGGGCCAUGCGGGUGAGCC / GGCUCACCCGCAUGGCCCCCGGGCGCCGCCGCCCCCGGCCCC [EGF 5' UTR probe (42 bp)]”: binds (nucleolin (endogenous); [2]); binds (nucleolin (endogenous); [3]); binds (nucleolin (pcDNA3.1-Nuc); [4]). “GGGGCCGGGGGCGGCGGCGCCCGGGGGCCAUGCGGGUGAGCC / GGCUCACCCGCAUGGCCCCCGGGCGCCGCCGCCCCCGGCCCC [EGF 5' UTR probe (42 bp)]”: binds (nucleolin (pcDNA3.1-Nuc); [5]); no binding [1].

“UUUAGCCCCAUCCCUCAUUCCCGGUGGGGUUUGGAACUUUCC / GGAAAGUUCCAAACCCCACCGGGAAUGAGGGAUGGGGCUAAA [PDGF-BB 5' UTR probe (42 bp)]”: binds (nucleolin (endogenous); [2]); binds (nucleolin (endogenous); [3]); binds (nucleolin (pcDNA3.1-Nuc); [4]). “UUUAGCCCCAUCCCUCAUUCCCGGUGGGGUUUGGAACUUUCC / GGAAAGUUCCAAACCCCACCGGGAAUGAGGGAUGGGGCUAAA [PDGF-BB 5' UTR probe (42 bp)]”: binds (nucleolin (pcDNA3.1-Nuc); [5]); no binding [1].

— article PMC6991698
